The test can be described thus: qHTS Assay for Modulators of Lamin A Splicing. The note with it: HeLa LMNA splicing GFP/RFP minigene ratio, 48 h. Put shortly: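 Read-out is the ratio of GFP to DsRed2 object intensity, acquired by 488 nm laser-scanning cytometry on HeLa lamin A-EGFP minigene reporter cells. Compound incubation 48 hrs at 37 °C in Opti-MEM with 2% FBS; DMSO 0.5% final.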
Where [1] appears, read: measured here: GFP splicing reporter channel.
Setting [2] is: measured here: RFP viability control channel.

This is one part of the list. The main result of the screen is listed elsewhere. These columns were measured beside it and carry no call. Most of these compounds were active or inconclusive in the main read-out, so they are no random draw. Words in brackets tell the shape of the fitted curve; partial curves, single points and poor fits give uncertain potencies.

Consider `CC1=NN(C(=O)c2ccc(Cn3cc(Br)c([N+](=O)[O-])n3)o2)C(O)(C(F)(F)F)C1` (stereo not drawn), for which the concentration at half-maximal activity (AC50) under setting [1] is 20 µM [rising, single point]. As to `O=C(CSc1ccc(Cl)cc1)Nc1ccccc1N1CCN(C(=O)c2ccc(Cl)cc2)CC1`, the AC50 under setting [1] is 20 µM [rising, partial curve, poor fit] and the AC50 under setting [2] was 14.1 µM [rising, partial curve]. Turning to `O/N=C/c1ccccc1OCc1ccccc1F`, the AC50 is, setting by setting: under setting [1], 20 µM [rising, partial curve]; under setting [2], 35.5 µM [rising, single point].

Take `Oc1ccc(Br)cc1C=Nc1ccc(Cl)cc1`: the AC50 under setting [2] was 2.82 µM [falling, single point]. On to `COc1ccc(N(C)C(=O)Cc2c(C(=O)O)[nH]c3ccccc23)cc1`, for which the half-maximal activity concentration (AC50) is 20 µM [rising, partial curve, poor fit] under setting [1] and 10 µM [rising, single point] under setting [2].

`COc1ccc(OC)c(NC(=O)Cn2cnc3c(oc4ccccc43)c2=O)c1`: the AC50 under setting [1] is 35.5 µM [falling, single point]. Take `CC(=O)Nc1cccc(OCC(O)Cn2c(C)nc3ccccc32)c1` (stereo not drawn): the AC50 under setting [2] was 35.5 µM [rising, single point]. As to `O=C(c1ccc(Br)cc1)c1cc([N+](=O)[O-])ccc1N1CCCCC1`, the AC50 runs as follows: under setting [1], 0.891 µM [falling, full curve]; under setting [2], 0.891 µM [falling, full curve]. With `Cc1ccc(CNC(=O)Cn2ccn(-c3ccc(C)c(C)c3)c(=O)c2=O)cc1`, the AC50 by setting is: under setting [1], 3.16 µM [falling, partial curve, poor fit]; under setting [2], 35.5 µM [falling, single point]. With `C1COC(NC(C2CC2)C2CC2)=N1`, under setting [1], the AC50 is 35.5 µM [falling, single point]. Turning to `COc1ccc(-c2csc(NC(=O)C3CCCO3)n2)cc1` (stereo not drawn), the AC50 is 6.31 µM [rising, full curve] under setting [1] and 6.31 µM [rising, full curve] under setting [2]. As to `O=C(Cc1cccc2ccccc12)N/N=C/c1ccc(OC(=O)/C=C/c2ccco2)cc1`, the AC50 under setting [2] is 20 µM [rising, single point]. `CCn1nc(C)c(/C=C2\CCCC3=C2OC(N)=C(C#N)C3c2c(C)nn(CC)c2C)c1C` (stereo not drawn): the AC50 under setting [2] is 3.16 µM [rising, full curve]. Still for that read-out and setting: the figure for `COc1ccc(CCn2c(N)c(C(=O)NCc3ccco3)c3nc4ccccc4nc32)cc1` is 35.5 µM [rising, single point]. For `O=C(NCc1ccccc1)c1nc(-c2cccs2)no1`, the concentration at half-maximal activity (AC50) is, setting by setting: under setting [1], 3.98 µM [rising, partial curve]; under setting [2], 5.01 µM [rising, single point].

For the compound `CCc1ccc(S(=O)(=O)Nc2ccc(-c3ccc(N4CCCCCC4)nn3)cc2)cc1`, the AC50 reads like this: under setting [1], 0.0501 µM [falling, full curve, poor fit]; under setting [2], 0.0398 µM [falling, partial curve, poor fit]. Regarding `Cn1c(=O)[nH]c2ncn(C)c2c1=O`, under setting [2], the AC50 was 0.00447 µM [falling, full curve, poor fit]. Same read-out and setting: the figure for `Cc1ccc(-c2csc(NC(=O)C3CCN(S(=O)(=O)c4cccs4)CC3)n2)cc1` is 0.708 µM [rising, full curve]. Regarding `Clc1ccc2c(N/N=C/c3ccc(Br)cc3)ccnc2c1`, the AC50 under setting [1] is 14.1 µM [rising, single point] and the half-maximal activity concentration (AC50) under setting [2] was 31.6 µM [rising, single point]. Regarding `CCn1ncc(C2=NOC(C(=O)NCc3ccccc3)C2)c1C` (stereo not drawn), under setting [2], the AC50 was 14.1 µM [rising, partial curve]. The same measure, in the same setting: the figure for `COc1ccccc1OCCNS(=O)(=O)c1ccc2oc3ccccc3c2c1` is 35.5 µM [rising, single point]. Turning to `CCCc1nc2sc3c(SCC(=O)NCc4ccco4)ncnc3c2c2c1CCC2`, the concentration at half-maximal activity (AC50) under setting [2] was 20 µM [rising, single point].

In the case of `CCC1CCCCN1CCCNC(=O)CN1C(=O)CSc2ccc(S(=O)(=O)N3CCC(C)CC3)cc21` (stereo not drawn), the AC50 under setting [2] is 0.0282 µM [rising, full curve, poor fit].

`COc1cccc(NC(=O)c2ccncc2)c1`: the AC50 under setting [1] is 12.6 µM [rising, partial curve]. As to `O=C(Nc1cccc(Cl)c1)Nc1ccccc1OCc1cc(=O)n2ccccc2n1`, the AC50 under setting [1] is 1.41 µM [rising, partial curve] and the AC50 under setting [2] was 1.26 µM [rising, full curve]. Turning to `CN1C(=O)CC[C@@H]1c1cccnc1`, the AC50 is, setting by setting: under setting [1], 0.000891 µM [falling, full curve, poor fit]; under setting [2], 0.000891 µM [falling, full curve, poor fit]. For `O=C(O)C1C2C=CC(O2)C1C(=O)NCCc1cccc(Cl)c1` (stereo not drawn), the AC50 under setting [1] is 2.51 µM [falling, full curve, poor fit] and the AC50 under setting [2] is 4.47 µM [falling, full curve, poor fit]. For `Cc1ccc(-c2nnc(-c3ccc(Br)cc3)o2)o1`, the AC50 under setting [2] was 12.6 µM [rising, single point].

For the compound `CCOC(=O)Nc1ccc2c(c1)N(C(=O)OC)c1ccccc1CC2`, the AC50 was 25.1 µM [falling, single point] under setting [1] and 35.5 µM [falling, single point] under setting [2]. In the case of `Cc1ccccc1Nc1nc(Cl)c(C=O)s1`, the half-maximal activity concentration (AC50) under setting [2] is 14.1 µM [rising, single point]. As to `COc1cc([N+](=O)[O-])cc(/C=N/NC(=O)C(C)Nc2cccc(C)c2)c1O` (stereo not drawn), the AC50 runs as follows: under setting [1], 31.6 µM [rising, single point]; under setting [2], 25.1 µM [rising, single point].

Take `O=C(NCCc1ccccn1)c1cc(-c2ccc(Cl)c(Cl)c2Cl)nc2ccccc12`: under setting [2], the AC50 was 17.8 µM [rising, partial curve]. On to `Cc1cccc(N2CCN(C(=O)CC(NC(=O)c3ccccc3Cl)c3ccccc3)CC2)c1C` (stereo not drawn), for which, under setting [2], the AC50 is 31.6 µM [rising, single point].

As for `CC(=O)C1=C(c2ccc(Cl)c(Cl)c2)N(C(C)=O)n2c(C)nnc2S1`, the AC50 under setting [2] is 11.2 µM [rising, partial curve, poor fit]. Consider `CCOc1ccc(S(=O)(=O)N2CCN(C(=O)c3cccn3C)CC2)cc1`, for which the AC50 was 35.5 µM [rising, single point] under setting [1] and 22.4 µM [rising, single point] under setting [2]. Turning to `CCCOc1ccc(C(=O)Nc2ccc(Cl)cn2)cc1`, the AC50 under setting [2] is 11.2 µM [rising, single point]. Regarding `C=CCSSSCC=C`, the AC50 under setting [1] was 20 µM [falling, single point].

As for `O=[N+]([O-])c1ccc2[nH]c3c(c2c1)CCCC3O` (stereo not drawn), the AC50 under setting [1] was 0.00316 µM [rising, full curve, poor fit].

Consider `CCOc1ccc(NC(=S)N(CCc2c(C)[nH]c3ccccc23)Cc2ccco2)cc1`, for which, under setting [2], the AC50 was 2 µM [rising, full curve]. Same read-out and setting: the figure for `c1ccc2c(c1)ccc1nnc(-c3ccc4c(c3)OCO4)n12` is 12.6 µM [rising, single point]. For the compound `O=C(Nc1cccc(Cl)c1)c1cc(S(=O)(=O)NCCc2ccc(Cl)cc2)ccc1F`, the concentration at half-maximal activity (AC50) by setting is: under setting [1], 35.5 µM [falling, single point]; under setting [2], 25.1 µM [falling, single point].

Take `COc1ccc(C2C3C(=O)N(Cc4ccccc4)C(=O)C3ON2c2ccccc2)c(OC)c1OC` (stereo not drawn): the AC50 was 31.6 µM [rising, single point] under setting [1] and 35.5 µM [rising, single point] under setting [2]. As to `Fc1ccc(C(c2nnnn2CCc2ccccc2)N2CCCc3ccccc32)cc1` (stereo not drawn), the concentration at half-maximal activity (AC50) is 15.8 µM [rising, partial curve, poor fit] under setting [1] and 12.6 µM [rising, partial curve] under setting [2]. Regarding `CN/C(=C\[N+](=O)[O-])NCCSCc1ccc(CN(C)C)o1`, the AC50 under setting [2] was 0.0794 µM [falling, full curve, poor fit]. In the case of `CCOC(=O)c1cc(C(=O)n2cc(Cl)cn2)nn1C`, the AC50 under setting [2] was 3.55 µM [rising, single point].

In the case of `COC(=O)c1cn(N(C)c2ncc(C(F)(F)F)cc2Cl)c(=O)c2ccccc12`, the AC50 under setting [2] is 31.6 µM [rising, single point].

Turning to `COc1ccccc1N1CCN(C(=O)c2sc3nc4n(c(=O)c3c2C)CCC4)CC1`, the AC50 is, setting by setting: under setting [1], 14.1 µM [rising, single point]; under setting [2], 25.1 µM [rising, single point]. For the compound `O=C(NCCSc1ccccn1)c1ccc(Cl)cc1Cl`, the AC50 under setting [2] is 0.00447 µM [falling, full curve, poor fit].

Regarding `CC(C)Oc1ccc(C(=O)NC2(C(F)(F)F)NC(=O)N(CCCc3ccccc3)C2=O)cc1` (stereo not drawn), the AC50 is 35.5 µM [rising, single point] under setting [1] and 35.5 µM [rising, single point] under setting [2].

Regarding `CCCCC(=O)NC(=S)NNC(=O)c1ccc(Cl)cc1Cl`, the half-maximal activity concentration (AC50) is 5.62 µM [rising, single point] under setting [1] and 3.55 µM [rising, single point] under setting [2].

`Cc1ccc(S(=O)(=O)N(C)Cc2ccc(C(=O)NN=C(CC(C)C)CC(C)C)cc2)cc1`: the AC50 under setting [2] is 31.6 µM [rising, single point].

Consider `CN(C)/C=C(/C(=O)c1ccccc1)S(=O)(=O)c1ccc(Cl)cc1`, for which the AC50 under setting [1] is 10 µM [rising, partial curve].

Take `Cc1nn(Cc2cccc(C(=O)NC34CC5CC(CC(C5)C3)C4)c2)c(C)c1Br`: under setting [2], the AC50 was 11.2 µM [rising, partial curve]. In the case of `Cc1ccc(-c2cn3c(n2)CCCC3)cc1`, the AC50 was 0.0126 µM [rising, full curve, poor fit] under setting [1] and 35.5 µM [rising, single point] under setting [2]. Take `O=C(NC1CC(=O)N(c2cccc(F)c2)C1)c1ccc(S(=O)(=O)N2CCOCC2)cc1` (stereo not drawn): the AC50 under setting [2] is 1 µM [falling, full curve]. The same measure, in the same setting: the figure for `CN(C)c1oc(-c2ccc(OCc3ccccc3)cc2)nc1C#N` is 35.5 µM [rising, single point].

The values are drawn from PubChem BioAssay AID1487 (National Center for Advancing Translational Sciences (NCATS), 2009).
